The record followed here is patent US20090220527A1 (MEDLMMUNE, published 2009).

Sequences of proteins named here, by UniProt entry; tags and fusion partners are left off. Residues count along the entry.
UniProt P29317, residues 24-534: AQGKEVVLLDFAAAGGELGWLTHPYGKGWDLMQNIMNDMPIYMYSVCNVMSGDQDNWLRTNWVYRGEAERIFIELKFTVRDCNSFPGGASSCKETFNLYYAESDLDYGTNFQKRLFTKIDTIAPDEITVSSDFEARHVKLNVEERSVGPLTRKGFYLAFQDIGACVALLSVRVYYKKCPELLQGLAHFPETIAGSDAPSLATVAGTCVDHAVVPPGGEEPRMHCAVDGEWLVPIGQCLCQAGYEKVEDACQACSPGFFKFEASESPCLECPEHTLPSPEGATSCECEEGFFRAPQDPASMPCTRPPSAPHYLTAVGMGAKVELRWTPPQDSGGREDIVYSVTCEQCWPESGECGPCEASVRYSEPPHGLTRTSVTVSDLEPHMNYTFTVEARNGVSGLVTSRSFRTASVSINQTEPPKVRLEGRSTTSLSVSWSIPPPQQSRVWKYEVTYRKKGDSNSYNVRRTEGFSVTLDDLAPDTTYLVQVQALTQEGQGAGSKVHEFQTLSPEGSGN

The assay has as its target human EphA2 (form used in the affinity measurements not stated) (human) (UniProt P29317). Put plainly: SPR (BIAcore 3000), purified scFv.

Results are given in words; binding and its absence hold for the method and conditions named. Some binding calls cover weakened binding; strength is not graded here.

B1: 2A4 scFv (affinity optimized combinatorial variant of humanized 4H5) (scFv)
scFv: QVQLLESGGGLVQPGGSLRLSCAASGFTFSSYTMSWVRQAPGQALEWMGTISSRGTYTYYPDSVKGRFTISRDNAKNSLYLQMNSLRAEDTAVYYCAREAIFTHWGRGTLVTVSSGGGGSGGGGSGGGGSDIQLTQSPSSLSASVGDRVTITCKASQDINNYHSWYQQKPGQAPRLLIYRANRLVDGVPDRFSGSGYGTDFTLTINNIESEDAAYYFCLKYNVFPYTFGQGTKVEIK
In the case of B1, the binding entry is “binds”.

B2: 2E7 scFv (affinity optimized combinatorial variant of humanized 4H5) (scFv)
scFv: QVQLLESGGGLVQPGGSLRLSCAASGFTFSSYTMSWVRQAPGQALEWMGTISSRGTYTYYPDSVKGRFTISRDNAKNSLYLQMNSLRAEDTAVYYCAREAIFTHWGRGTLVTVSSGGGGSGGGGSGGGGSDIQLTQSPSSLSASVGDRVTITCKASQDINNYGSWYQQKPGQAPRLLIYRANRLVDGVPDRFSGSGYGTDFTLTINNIESEDAAYYFCLKYNRFPYTFGQGTKVEIK
On to B2, for which the binding result is on record as “binds”.
